Measured values from US11567075B2, “Immunochromatographic device, immunochromatographic kit and immunochromatographic detection method” (TANAKA KIKINZOKU KOGYO K.K., priority 2018, dated 2023).
For at least one compound, name, drawing or mass did not settle the structure.

Assay: Sublimation of the acid under reduced pressure (weight change)
Format: physicochemical
Conditions: 1 g acid, 12 hours

O=C1OC(=O)C2C3C=CC(C12)C1C(=O)OC(=O)C31 (stereo not shown) [Example 1, bicyclo[2,2,2]oct-7-ene-2,3,5,6-tetracarboxylic dianhydride]
Sublimation at 25° C. at 20 Pa: A (“A” indicates that the acid did not sublimate (increase or the decrease in the weight was within 5%))
